Laboratory results reported in PubChem BioAssay AID540256 (National Center for Advancing Translational Sciences (NCATS), 2011).
The campaign covered roughly 300,000 compounds. About 3,700 (1.2%) were called active. The shares of active, inactive and inconclusive entries below differ from those in the screen. The call rests on the fitted dose curve; tested in HEK293 cells. Potencies of inconclusive entries are doubtful fits and often do not repeat.

Assay: qHTS for Inhibitors of binding or entry into cells for Lassa Virus; further: nearly all actives have a fitted effect of over 50% in size
Conditions: Lassa virus pseudotype entry inhibition, cell reporter; series mostly up to 37.9 µM
Potency means the concentration at half of the fitted maximal effect.

Q: For `O=C(COC(=O)c1cccc(S(=O)(=O)Nc2ccc(F)cc2)c1)NCCN1C(=O)CSC1=O`, which Potency is on record?
A: The Potency was inconclusive: 5.01 µM [inhibitor, full curve, poor fit].

Q: With `CCOc1ccccc1N1CCN(S(=O)(=O)c2ccc3c4c(cccc24)C(=O)N3)CC1` as the compound, how does the Potency read?
A: The Potency was inconclusive: 20.6 µM [inhibitor, partial curve, poor fit].

Q: For `COCCSc1nnc(NC(=O)CS(=O)(=O)c2ccc(C)cc2)s1`, which Potency is on record?
A: The Potency was “inactive”.

Q: For `CC(=O)c1c(C)[nH]c(C(=O)CSc2nc3ccccc3n2C)c1C`, which Potency is on record?
A: Its Potency is inconclusive: 35.5 µM [inhibitor, single point].

Q: For `N#CC1=C(N)NC(SCc2ccccc2)=C(C#N)C12CCCCC2`, which Potency is on record?
A: Its Potency is inconclusive: 29.1 µM [inhibitor, single point].

Q: With `CC(=O)Nc1ccc(C(=O)Nc2cc(S(=O)(=O)N3CCOCC3)ccc2N2CCOCC2)cc1` as the compound, how does the Potency read?
A: Its Potency is inconclusive: 11.2 µM [inhibitor, partial curve, poor fit].

Q: With `Cc1ccc(-c2nc3scc(CCNS(=O)(=O)c4c(C)noc4C)n3n2)cc1` as the compound, how does the Potency read?
A: The Potency was “inactive”.

Q: With `Cc1cc(C)c(C#N)c(SCc2c(F)cccc2[N+](=O)[O-])n1` as the compound, how does the Potency read?
A: The Potency was “inactive”.

Q: With `CCOc1ccccc1CNC(=O)c1cc2oc3ccccc3c2n1CC` as the compound, how does the Potency read?
A: The Potency was active: 5.17 µM.

Q: For `CCCCOC(=O)C1CCCC(C)N1` (configuration not stated), which Potency is on record?
A: Its Potency is inconclusive: 18.3 µM [activator, single point].

Q: For `O=c1[nH]c2ccc(S(=O)(=O)Nc3cc(Cl)ccc3O)cc2o1`, which Potency is on record?
A: The Potency was “inactive”.

Q: Which Potency does the source give for `CC(=NNC(=S)N(Cc1ccccn1)Cc1ccccn1)c1cnccn1` here?
A: Its Potency is active: 2.82 µM.

Q: With `Cc1ccsc1/C=N/N=C1\C(=O)Nc2ccccc21` as the compound, how does the Potency read?
A: The Potency was “inactive”.

Q: With `CCOc1ccc(C(=O)NCC(=O)Nc2ccc3c(c2)OCO3)cc1OCC` as the compound, how does the Potency read?
A: Its Potency is inconclusive: 7.08 µM [activator, partial curve, poor fit].

Q: Which Potency does the source give for `Cc1ccc(-c2csc(NC(=O)CSc3nnc4c(n3)[nH]c3ccccc34)n2)cc1` here?
A: The Potency was active: 3.16 µM.

Q: With `CCN(CC(=O)Nc1ccccc1C(F)(F)F)C(=O)C1CC(=O)N(Cc2ccccc2)C1` (configuration not stated) as the compound, how does the Potency read?
A: Its Potency is “inactive”.

Q: For `Cc1ccn2c(-c3csc(NCc4ccccc4)n3)c(C)nc2c1`, which Potency is on record?
A: Its Potency is inconclusive: 35.5 µM [inhibitor, single point].

Q: For `CCC(=O)N(Cc1cccs1)C1CCOC(C)(C)C1` (configuration not stated), which Potency is on record?
A: The Potency was “inactive”.

Q: With `Cc1ccc(-c2n[nH]c3c2C(c2ccccc2)N(c2ccc(C(=O)O)cc2)C3=O)cc1` (configuration not stated) as the compound, how does the Potency read?
A: Its Potency is inconclusive: 35.5 µM [inhibitor, single point].

Q: For `O=c1cc(N2CCC3(CC2)OCCO3)[nH]c(=O)n1-c1ccc(Br)cc1`, which Potency is on record?
A: The Potency was inconclusive: 5.8 µM [activator, partial curve, poor fit].

Q: Which Potency does the source give for `Cc1c(NC(=O)c2ccc(-c3ccc(F)cc3)o2)cccc1-c1nc2ncccc2o1` here?
A: Its Potency is “inactive”.

Q: For `NS(=O)(=O)c1ccc(NC(=O)CSc2nnc(COc3ccccc3Cl)n2C2CC2)cc1`, which Potency is on record?
A: The Potency was inconclusive: 1.26 µM [activator, partial curve, poor fit].

Q: With `O=Cc1c(NCCN2CCCC2)c2ccccc2[nH]c1=O` as the compound, how does the Potency read?
A: Its Potency is inconclusive: 35.5 µM [activator, single point].

Q: With `COc1cc(NC(=O)CCCN2C(=O)CCn3nc(-c4cn(C)c5ccccc45)cc32)cc(OC)c1` as the compound, how does the Potency read?
A: Its Potency is “inactive”.

Q: Which Potency does the source give for `COCc1cc(/C=N\NC(=O)COc2ccc(Cl)cc2)ccc1OC` here?
A: Its Potency is inconclusive: 6.51 µM [inhibitor, partial curve].

Q: Which Potency does the source give for `CCCCn1c(-c2cccs2)nc2nc3ccccc3nc21` here?
A: The Potency was inconclusive: 29.1 µM [inhibitor, single point].

Q: With `CCOc1cccc(C2c3[nH]c4ccccc4c3CCN2C(=O)Cc2cccc(OCC)c2OCC)c1` (configuration not stated) as the compound, how does the Potency read?
A: Its Potency is “inactive”.

Q: For `COC(=O)[C@H](C(C)C)N(Cc1cc(OC)cc(OC)c1)S(=O)(=O)CCl`, which Potency is on record?
A: The Potency was inconclusive: 3.15 µM [inhibitor, single point].

Q: Which Potency does the source give for `Cc1cccc(NC(=O)CSc2c3c(nc4ccccc24)CCC3)n1` here?
A: The Potency was “inactive”.

Q: For `CCCCn1c(N)c(N(CCC(C)C)C(=O)CC2CCCCC2)c(=O)[nH]c1=O`, which Potency is on record?
A: Its Potency is inconclusive: 0.0891 µM [inhibitor, full curve, poor fit].

Q: Which Potency does the source give for `O=C(NCCn1cccn1)C1CCC(=O)N(CCc2ccccc2)C1` (configuration not stated) here?
A: Its Potency is “inactive”.

Q: With `Cc1ccc2sc(N(CCCN(C)C)C(=O)c3nc4ccccc4s3)nc2c1C` as the compound, how does the Potency read?
A: Its Potency is inconclusive: 35.5 µM [inhibitor, single point].

Q: Which Potency does the source give for `Cc1ccc(S(=O)(=O)N2CCC(C(=O)NCCCN3CCCC3=O)CC2)cc1` here?
A: The Potency was “inactive”.

Q: Which Potency does the source give for `CC(C)C(=NO)c1ccccc1` here?
A: The Potency was “inactive”.

Q: With `COc1cc(/C=C/C(=O)N(Cc2ccccc2)c2ccccn2)cc(OC)c1OC` as the compound, how does the Potency read?
A: The Potency was inconclusive: 10 µM [inhibitor, partial curve, poor fit].

Q: Which Potency does the source give for `COc1cc(OC)c(OC)cc1/C=N/Nc1ncnc2c1[nH]c1ccccc12` here?
A: Its Potency is “inactive”.

Q: For `CSC(=Nc1ccccc1)N=C(SCc1ccccc1)N(C)C`, which Potency is on record?
A: Its Potency is active: 12.6 µM.

Q: With `Cc1nc(NC(=O)/C=C/c2ccccc2)n[nH]1` as the compound, how does the Potency read?
A: Its Potency is inconclusive: 12.6 µM [inhibitor, single point].

Q: For `CN(CC(O)COc1ccccc1F)C1CCCCC1` (configuration not stated), which Potency is on record?
A: The Potency was “inactive”.

Q: With `CC(=CC(=O)c1ccccc1)c1ccccc1` as the compound, how does the Potency read?
A: The Potency was “inactive”.

Q: Which Potency does the source give for `N#Cc1c(NC(=O)c2cccnc2)sc2c1CCC2` here?
A: Its Potency is inconclusive: 5.62 µM [inhibitor, partial curve, poor fit].

Q: With `O=[N+]([O-])c1cccc(/C=N/N2CCN(Cc3ccccc3)CC2)c1` as the compound, how does the Potency read?
A: Its Potency is inconclusive: 10 µM [activator, partial curve, poor fit].

Q: For `Cc1nc2c(-c3ccc(F)cc3)c(C)nn2c(C)c1CCC(=O)NCc1cccc(Cl)c1`, which Potency is on record?
A: The Potency was “inactive”.

Q: For `COCCOC(=O)C1=C(N)OC2=C(C(=O)CC(C)(C)C2)C1c1cccnc1` (configuration not stated), which Potency is on record?
A: Its Potency is inconclusive: 0.0058 µM [activator, full curve, poor fit].

Q: With `Cc1cc(=O)oc2cc(OCc3ccc(S(=O)(=O)N4CCOCC4)cc3)ccc12` as the compound, how does the Potency read?
A: Its Potency is inconclusive: 0.92 µM [inhibitor, full curve, poor fit].

Q: Which Potency does the source give for `COc1ccccc1-c1cc(C(F)(F)F)nc(NCc2cccs2)n1` here?
A: The Potency was “inactive”.

Q: With `COc1cc(-c2nc(CN3CCN(CC(C)C)C(=O)[C@@H]3C)c(C)o2)ccc1F` as the compound, how does the Potency read?
A: The Potency was “inactive”.

Q: For `Cc1cccc(-c2cc(N)n(-c3ccccc3)n2)c1`, which Potency is on record?
A: Its Potency is inconclusive: 15.8 µM [inhibitor, single point].

Q: Which Potency does the source give for `CN(C)c1ccc(C(=S)N2CCN(C(=S)Nc3cccc4ccccc34)CC2)cc1` here?
A: The Potency was “inactive”.

Q: Which Potency does the source give for `Cc1cccc(C(=O)Nc2ccc3c(c2)nc(C)n3C)c1` here?
A: The Potency was inconclusive: 31.6 µM [inhibitor, single point].

Q: With `Cc1ccccc1NC(=O)NCc1ccco1` as the compound, how does the Potency read?
A: Its Potency is inconclusive: 3.98 µM [activator, single point].

Q: For `CCn1nc([N+](=O)[O-])c(C(C#N)c2nc3ccccc3n2C)c(Cl)c1=O` (configuration not stated), which Potency is on record?
A: The Potency was “inactive”.

Q: Which Potency does the source give for `Cc1cc(N)n2ncc(-c3ccc(F)cc3)c2n1` here?
A: Its Potency is inconclusive: 0.92 µM [activator, full curve, poor fit].

Q: With `Cc1cc(C)c2oc(C(=O)N(Cc3ccccc3)C3CCS(=O)(=O)C3)cc(=O)c2c1` (configuration not stated) as the compound, how does the Potency read?
A: Its Potency is inconclusive: 1.12 µM [inhibitor, single point].

Q: With `O=C1CCCc2c1cc(-c1ccccc1)n2-c1ccccc1` as the compound, how does the Potency read?
A: The Potency was inconclusive: 13 µM [inhibitor, partial curve].

Q: Which Potency does the source give for `CCCCN(Cc1ccco1)C(=O)C1CCCN(c2ncnc3c2nc2n3CCCCC2)C1` (configuration not stated) here?
A: Its Potency is inconclusive: 4.47 µM [inhibitor, partial curve].

Q: Which Potency does the source give for `Cn1ccnc1SCC(=O)c1cc2ccccc2o1` here?
A: Its Potency is inconclusive: 2.31 µM [activator, partial curve, poor fit].

Q: Which Potency does the source give for `COc1cccc(N2C(=O)CSC23C(=O)N(Cc2ccccc2F)c2ccccc23)c1` (configuration not stated) here?
A: Its Potency is “inactive”.

Q: With `COc1ccc(CNC(=S)N/N=C(\C)c2ccc(OC)cc2)cc1` as the compound, how does the Potency read?
A: Its Potency is inconclusive: 7.94 µM [inhibitor, partial curve, poor fit].

Q: With `O=C(Cn1cccc1C(=O)c1ccccc1)NCc1cccc(Cl)c1` as the compound, how does the Potency read?
A: Its Potency is inconclusive: 16.4 µM [activator, partial curve].

Q: For `COc1ccc(N(C(=O)c2snc(C(N)=O)c2N)C(C(=O)NC2CCCC2)c2cccs2)cc1OC` (configuration not stated), which Potency is on record?
A: The Potency was inconclusive: 1.12 µM [inhibitor, partial curve, poor fit].

Q: With `CCc1cc[n+](C2=C([O-])c3ccccc3C(=O)/C2=N\S(=O)(=O)c2cccs2)cc1` as the compound, how does the Potency read?
A: Its Potency is active: 18.4 µM.

Q: For `CCOc1ccc(CCNC(=O)COC(=O)CSc2ccc(C)cc2)cc1OCC`, which Potency is on record?
A: Its Potency is “inactive”.

Q: For `COc1cc(NC(=O)C2CC(c3cccc(OC)c3OC)=NO2)cc(OC)c1OC` (configuration not stated), which Potency is on record?
A: The Potency was inconclusive: 29.1 µM [inhibitor, single point].

Q: With `Cc1ccccc1Nc1nc2ccccc2s1` as the compound, how does the Potency read?
A: The Potency was inconclusive: 12.6 µM [inhibitor, single point].

Q: For `CCOC(=O)c1ccc(NC(=O)COc2ccccc2CNC2CCCC2)cc1`, which Potency is on record?
A: Its Potency is inconclusive: 35.5 µM [inhibitor, single point].

Q: For `Cc1cc(/C=N/NC(=O)C(=O)N2CCCC2)c(C)n1-c1cccc(Br)c1`, which Potency is on record?
A: The Potency was inconclusive: 20 µM [inhibitor, single point].

Q: With `COC(=O)c1c(C)nc2ccccc2c1-c1ccccc1` as the compound, how does the Potency read?
A: Its Potency is “inactive”.

Q: With `CCN(CC)C(=N)/C(C#N)=N/Nc1ccc(C)cc1` as the compound, how does the Potency read?
A: The Potency was inconclusive: 35.5 µM [inhibitor, single point].

Q: For `O=C(NCc1ccc2c(c1)OCO2)c1ccc(-c2ccc(Cl)cc2)o1`, which Potency is on record?
A: The Potency was inconclusive: 0.0052 µM [inhibitor, full curve, poor fit].

Q: Which Potency does the source give for `COc1ccc(CCNC(=O)c2cc(-c3ccc(C)c(C)c3)nc3ccccc23)cc1OC` here?
A: The Potency was inconclusive: 22.4 µM [inhibitor, single point].

Q: Which Potency does the source give for `Cc1ccc(Cn2c(NS(=O)(=O)c3ccccc3)nc3ccccc32)cc1` here?
A: The Potency was “inactive”.
